# Counter-ions that a name gives are not always drawn. The list shows a part of the results. Hit calls seldom repeat between salt and free forms of one compound.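 Kinases were expressed as nanoluciferase fusions in K562 cells and luminescence was read every 4 h between 2 and 18 h as percent of control, DMSO set to 100% and a positive control to 0%. A time point counts as decreased when the signal drops significantly (2 sigma). The hit call is the authors' own, does not follow from the count of time points alone, and its rule is not shown.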
# The chains behind the UniProt entries cited, without tags or fusion partners. Where a name states a change or a piece, a line headed by the entry shows the natural chain unless it says otherwise.
# UniProt Q08345: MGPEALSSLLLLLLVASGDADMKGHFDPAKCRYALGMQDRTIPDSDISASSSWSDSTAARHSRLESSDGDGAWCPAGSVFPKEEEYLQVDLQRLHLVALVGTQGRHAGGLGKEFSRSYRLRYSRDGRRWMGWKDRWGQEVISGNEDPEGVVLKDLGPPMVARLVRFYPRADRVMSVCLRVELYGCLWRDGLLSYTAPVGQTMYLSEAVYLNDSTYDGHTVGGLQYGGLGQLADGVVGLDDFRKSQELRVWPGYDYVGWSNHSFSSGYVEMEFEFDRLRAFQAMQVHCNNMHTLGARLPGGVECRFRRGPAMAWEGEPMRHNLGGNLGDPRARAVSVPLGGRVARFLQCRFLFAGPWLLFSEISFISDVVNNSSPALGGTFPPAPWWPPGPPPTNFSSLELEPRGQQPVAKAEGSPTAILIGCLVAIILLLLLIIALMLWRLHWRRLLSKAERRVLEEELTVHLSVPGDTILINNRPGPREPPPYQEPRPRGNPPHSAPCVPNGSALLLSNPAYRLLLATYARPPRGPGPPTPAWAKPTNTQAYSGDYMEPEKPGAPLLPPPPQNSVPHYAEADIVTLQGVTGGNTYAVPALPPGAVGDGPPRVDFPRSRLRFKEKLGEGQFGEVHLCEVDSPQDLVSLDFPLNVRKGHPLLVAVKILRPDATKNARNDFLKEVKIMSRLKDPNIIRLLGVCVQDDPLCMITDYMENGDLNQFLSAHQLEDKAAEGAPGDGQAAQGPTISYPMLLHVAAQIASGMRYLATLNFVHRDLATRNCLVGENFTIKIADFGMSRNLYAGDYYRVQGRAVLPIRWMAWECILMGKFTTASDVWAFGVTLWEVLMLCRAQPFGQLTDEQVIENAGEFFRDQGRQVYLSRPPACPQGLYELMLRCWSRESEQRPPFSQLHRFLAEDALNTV
# Target: DDR1 (UniProt Q08345)
# Assay: number of time points (of 5) at which kinase-Nluc abundance scored as decreased, DMSO-normalised (count); higher = more persistent destabilization
# Settings: K562; 2-18 h
row,SMILES,number of time points
1,Cn1cnc2c(F)c(Nc3ccc(Br)cc3Cl)c(C(=O)NOCCO)cc21 [Selumetinib (sulfate)] (10 µM),0
2,COc1ncc(Cl)cc1S(=O)(=O)Nc1ccc(F)c(C#Cc2cnc(N)nc2)c1F (2.5 µM),0
3,CNC(=O)c1cc(COc2nnc(Nc3ccc(Cl)cc3)c3ccoc23)ccn1 [Telatinib] (10 µM),0
4,CC(C)(C)c1cc(O)ccc1O (10 µM),0
5,Cn1cnc2c(F)c(Nc3ccc(Br)cc3Cl)c(C(=O)NOCCO)cc21 [Selumetinib] (10 µM),1
6,Cc1c(-c2c(F)cc(C(N)=O)c3[nH]c4c(c23)CC[C@H](C(C)(C)O)C4)cccc1-n1c(=O)c2cccc(F)c2n(C)c1=O (2.5 µM),0
7,O=C(CSC1=NCCN1)NC1CCCCCC1 [ICCB-19 (hydrochloride)] (2.5 µM),0
8,Cn1cc(-c2ccc3nnc(Sc4ccc5ncccc5c4)n3n2)cn1 (10 µM),0
9,Cc1ccccc1-c1c2nccc(-c3ccc(F)cc3F)c2cc[n+]1[O-] (10 µM),0
10,Cn1nccc1Nc1nccc(-c2ccn([C@H](CO)c3ccc(Cl)c(F)c3)c(=O)c2)n1 [Ravoxertinib hydrochloride] (10 µM),0
11,OCCn1cc(-c2ccc3c(c2)CC/C3=N\O)c(-c2ccncc2)n1 (10 µM),0
12,Cc1[nH]c(/C=C2\C(=O)Nc3ccccc32)c(C)c1CCC(=O)O [Orantinib] (10 µM),0
13,NC(=O)c1nnc(N[C@@H]2CCCC[C@@H]2N)nc1Nc1cccc2cc[nH]c12 (10 µM),0
14,O=C(NOCC(O)CO)c1cc(Br)c(F)c(F)c1Nc1ccc(I)cc1F (centres undefined) (2.5 µM),0
15,CN(C)CCSSCCNC(=O)C1CCN(C(=O)CSc2ccc(Cl)cc2)CC1 (10 µM),0
16,CCC(C)N1c2ccccc2C(=O)N(C)c2cnc(Nc3ccc(C(=O)N4CCC(N5CCN(C)CC5)CC4)cc3OC)nc21 (centres undefined) (2.5 µM),0
17,CN(C)CCCOc1ccc(-c2ccc3ncc4c(c3c2)n(C2CCOCC2)c(=O)n4C)cn1 (2 µM),0
18,COc1ccc(-c2ccc3c(N4CCOCC4)nc(N4C[C@@H](C)O[C@@H](C)C4)nc3n2)cc1CO (2.5 µM),0
19,CC#CC(=O)N1CC[C@@H](n2c(=O)n(-c3ccc(Oc4ccccc4)cc3)c3c(N)ncnc32)C1 [Tirabrutinib (hydrochloride)] (10 µM),0
20,NC(=O)c1ccc(-c2nc(-c3ccc4c(c3)OCCO4)c(-c3ccccn3)[nH]2)cc1 (10 µM),0

# As a short view, part of the list above:
row,SMILES,number of time points
19,CC#CC(=O)N1CC[C@@H](n2c(=O)n(-c3ccc(Oc4ccccc4)cc3)c3c(N)ncnc32)C1 [Tirabrutinib (hydrochloride)] (10 µM),0
20,NC(=O)c1ccc(-c2nc(-c3ccc4c(c3)OCCO4)c(-c3ccccn3)[nH]2)cc1 (10 µM),0

# (continued)

row,SMILES,number of time points
1,FC(F)(F)c1ccc(CNc2ccc(Cc3c[nH]c4ncccc34)cn2)cc1 (10 µM),0
2,COc1ccc(Cl)c(Nc2nc3ccccc3nc2NS(=O)(=O)c2cccc(NC(=O)C(C)(C)N)c2)c1 [Pilaralisib] (10 µM),0
3,Oc1ccc(Nc2nc(-c3ccc(Cl)cc3)cs2)cc1 (10 µM),0
4,Cc1nc(-c2cn3c(n2)-c2ccc(-c4cnn(C(C)(C)C(N)=O)c4)cc2OCC3)n(C(C)C)n1 [Taselisib] (10 µM),1
5,COc1cccc(OC)c1C(=O)OCc1cc(O)ccc1O[C@@H]1O[C@H](CO)[C@@H](O)[C@H](O)[C@H]1O [Curculigoside] (10 µM),0
6,C[C@@H]1CCN(C(=O)CC#N)C[C@@H]1N(C)c1ncnc2[nH]ccc12 [Tofacitinib (citrate)] (10 µM),0
7,CCc1cc2c(cc1N1CCC(N3CCOCC3)CC1)C(C)(C)c1[nH]c3cc(C#N)ccc3c1C2=O [Alectinib] (10 µM),0
8,O=C(O)CCC(=O)Nc1ccc(Br)cn1 [Bikinin] (10 µM),0
9,COc1cc(Nc2ncc(F)c(Nc3ccc4c(n3)N(COP(=O)(O)O)C(=O)C(C)(C)O4)n2)cc(OC)c1OC [Fostamatinib (disodium hexahydrate)] (10 µM),1
10,C[C@@H]1CCN(C(=O)CC#N)C[C@@H]1N(C)c1ncnc2[nH]ccc12 [Tofacitinib] (10 µM),0
11,Nc1cc(C(F)(F)F)c(-c2cc(N3CCOCC3)nc(N3CCOCC3)n2)cn1 [Buparlisib (Hydrochloride)] (2.5 µM),0
12,O=C(NCCN1CCCC1)c1cc(-c2ccc(CN3CCOCC3)cc2)nc2ccc(F)cc12 (10 µM),0
13,Cc1[nH]c(/C=C2\C(=O)Nc3ccccc32)c(C)c1CCC(=O)O [(Z)-Orantinib] (10 µM),0
14,Cc1ccc(C(=O)Nc2ccc(Oc3cc4cnn(C)c4cc3-c3cn[nH]c3)c(F)c2)c(=O)n1-c1ccc(F)cc1 [Merestinib] (2.5 µM),0
15,NS(=O)(=O)c1ccc(-n2nc(C(F)(F)F)cc2-c2ccc(Cl)cc2)cc1 (10 µM),0
16,CN1CCN(c2cnc3c(C4CCN(C(=O)c5ccc(OC(F)(F)F)cc5N)CC4)ncnc3c2)CC1 (10 µM),0
17,COc1ccc2c(OCc3nnc4ccc(-c5ccccc5)nn34)ccnc2c1 (2 µM),0
18,NC(=O)c1ccc2[nH]ccc2c1 (10 µM),0
19,CNc1nc(Nc2ccc(C(=O)N3CCOCC3)cc2OC)nc2[nH]cc(Cl)c12 (2.5 µM),0
